Assay: general procedure: Boc solid-phase peptide synthesis; Boc Thr(OBzl) Pam resin; methoxybenzhydrylamine resin for C-terminal amide; HBTU
Conditions: conjugation step, analytical HPLC (Zorbax C8, 214 nm); MALDI mass spectral analysis

Glucagon Cys^24 Mal-PEG-20K
final HPLC purity: ±90%

Reference: US8669228B2 (Indiana University Research and Technology Corporation, priority 2007, dated 2014)
